Laboratory results taken from publication doi:10.1101/2023.08.14.553183.
Results are given in words; binding and its absence hold for the method and conditions named. In cells and extracts the contact can be indirect. Some results given as binding are weak or reduced against the parent protein; the word gives no strength.

Target: T1, SAMD1 full length, expressed in HEK293 cells for ectopic co-immunoprecipitation (UniProt Q6SPF0)
T1 sequence: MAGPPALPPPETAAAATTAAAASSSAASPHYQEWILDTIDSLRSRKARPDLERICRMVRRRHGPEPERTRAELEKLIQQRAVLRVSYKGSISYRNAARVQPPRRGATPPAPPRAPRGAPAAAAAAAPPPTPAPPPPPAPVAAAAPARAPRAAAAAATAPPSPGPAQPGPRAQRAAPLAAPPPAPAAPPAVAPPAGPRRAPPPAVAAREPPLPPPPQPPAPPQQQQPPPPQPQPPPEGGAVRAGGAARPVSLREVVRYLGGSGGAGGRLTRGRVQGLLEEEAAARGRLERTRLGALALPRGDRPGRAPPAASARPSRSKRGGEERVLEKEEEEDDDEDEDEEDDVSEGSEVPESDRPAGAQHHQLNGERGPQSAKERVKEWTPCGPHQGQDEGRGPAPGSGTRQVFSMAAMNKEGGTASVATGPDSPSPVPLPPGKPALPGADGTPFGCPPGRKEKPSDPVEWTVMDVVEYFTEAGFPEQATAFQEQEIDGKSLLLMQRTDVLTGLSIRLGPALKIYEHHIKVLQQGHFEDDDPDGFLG
Assay: co-IP

B1: F-box only protein 11 (FBXO11) in HEK293 cells (co-immunoprecipitation) (protein, UniProt Q86XK2 1-927)
chain: MNSVRAANRRPRRVSRPRPVQQQQQQPPQQPPPQPPQQQPPQQQPPPPPQQQQQQQPPPPPPPPPPLPQERNNVGERDDDVPADMVAEESGPGAQNSPYQLRRKTLLPKRTACPTKNSMEGASTSTTENFGHRAKRARVSGKSQDLSAAPAEQYLQEKLPDEVVLKIFSYLLEQDLCRAACVCKRFSELANDPILWKRLYMEVFEYTRPMMHPEPGKFYQINPEEYEHPNPWKESFQQLYKGAHVKPGFAEHFYSNPARYKGRENMLYYDTIEDALGGVQEAHFDGLIFVHSGIYTDEWIYIESPITMIGAAPGKVADKVIIENTRDSTFVFMEGSEDAYVGYMTIRFNPDDKSAQHHNAHHCLEITVNCSPIIDHCIIRSTCTVGSAVCVSGQGACPTIKHCNISDCENVGLYITDHAQGIYEDNEISNNALAGIWVKNHGNPIIRRNHIHHGRDVGVFTFDHGMGYFESCNIHRNRIAGFEVKAYANPTVVRCEIHHGQTGGIYVHEKGRGQFIENKIYANNFAGVWITSNSDPTIRGNSIFNGNQGGVYIFGDGRGLIEGNDIYGNALAGIQIRTNSCPIVRHNKIHDGQHGGIYVHEKGQGVIEENEVYSNTLAGVWVTTGSTPVLRRNRIHSGKQVGVYFYDNGHGVLEDNDIYNHMYSGVQIRTGSNPKIRRNKIWGGQNGGILVYNSGLGCIEDNEIFDNAMAGVWIKTDSNPTLRRNKIHDGRDGGICIFNGGRGLLEENDIFRNAQAGVLISTNSHPILRKNRIFDGFAAGIEITNHATATLEGNQIFNNRFGGLFLASGVNVTMKDNKIMNNQDAIEKAVSRGQCLYKISSYTSYPMHDFYRCHTCNTTDRNAICVNCIKKCHQGHDVEFIRHDRFFCDCGAGTLSNPCTLAGEPTHDTDTLYDSAPPIESNTLQHN
- binding: binds
